# Data as given in PubChem BioAssay AID1224826 (NIAID, 2016).
# Aim: 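Genes that change LPS-induced Tnf promoter activity in mouse macrophages when knocked down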 (primary screen)
# Cell system: RAW264.7 G9 macrophages from mouse bearing reporters for p65 (GFP) and the Tnf promoter (mCherry)
# Reagent: siRNA pool against mouse genes, 100 nM
# Timing: 16 h of LPS stimulation, after 2 days of siRNA transfection
# Treatment: bacterial lipopolysaccharide (Salmonella minnesota R595), 10 ng/ml
# Measurement: 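Nuclear mCherry signal of the Tnf promoter reporter measured by imaging after background removal, scaled to each plate median and turned into robust z-scores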
# Scale: Tnf reporter robust z-score: higher = stronger Tnf promoter reporter signal after LPS; Tnf reporter intensity: higher = stronger Tnf promoter reporter signal
# Rule for the call: 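Called active when robust z-score is at most -1.3, matching the median of the Tlr4 knock-down control, or over 3; control wells and wells with under 50 cells never active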
# Calls: active = Tnf reporter clearly lowered or raised; inactive = no clear change in Tnf reporter
# This is an unselected part of about 17,000 deposited reagents. Over the whole deposit, about 1,110 (6.6%) are marked active. 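Active means lowered or raised reporter signal; replicate intensities are raw and not normalised per plate.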
gene,Tnf reporter robust z-score,fewer than 50 cells in well,"Tnf reporter intensity, replicate 1","Tnf reporter intensity, replicate 2",call
Ifnb1,-1.29,enough cells in well,142,99.3,inactive
Fa2h,2.52,enough cells in well,406,287,inactive
Tmem143,2.12,enough cells in well,255,111,inactive
Or6f2,,fewer than 50 cells per well; well left out of calls,58.6,79.4,inactive
Nxph2,-1.3,enough cells in well,113,78.8,active
Pde9a,-0.33,enough cells in well,221,157,inactive
Pikfyve,-0.08,enough cells in well,228,197,inactive
Smpd3,1.23,enough cells in well,346,345,inactive
Pdxk,2.46,enough cells in well,330,322,inactive

No new results follow: an excerpt of the list.
gene,Tnf reporter robust z-score,fewer than 50 cells in well,"Tnf reporter intensity, replicate 1","Tnf reporter intensity, replicate 2",call
Or6f2,,fewer than 50 cells per well; well left out of calls,58.6,79.4,inactive
Nxph2,-1.3,enough cells in well,113,78.8,active
Pde9a,-0.33,enough cells in well,221,157,inactive

More entries:
gene,Tnf reporter robust z-score,fewer than 50 cells in well,"Tnf reporter intensity, replicate 1","Tnf reporter intensity, replicate 2",call
Pim2,0.22,enough cells in well,220,165,inactive
Snapc3,-0.5,enough cells in well,226,184,inactive
Kcnk12,2.79,enough cells in well,409,230,inactive
Cherp,-0.55,enough cells in well,134,144,inactive
A630026L20,-0.43,enough cells in well,157,119,inactive
Cltrn,,fewer than 50 cells per well; well left out of calls,101,101,inactive
Sstr2,-0.96,enough cells in well,226,47.8,inactive
Dmtf1l,,fewer than 50 cells per well; well left out of calls,458,15.7,inactive
Nsun4,0.95,enough cells in well,238,121,inactive
Dlgap3,,fewer than 50 cells per well; well left out of calls,85.5,91.4,inactive
Ahrr,0.8,enough cells in well,203,227,inactive
Ppic,0,enough cells in well,205,125,inactive
Fgf12,-0.01,enough cells in well,284,209,inactive
Usp11,-0.35,enough cells in well,186,223,inactive
Ccr3,-0.76,enough cells in well,158,223,inactive
